These are yes or no findings as the source states them, for the method shown. Binding seen in cells or lysates may run through a third protein. Some results given as binding are weak or reduced against the parent protein; the word gives no strength.
Key:
[1] = target: GST–IpaH1.4-C368A (catalytically dead IpaH1.4) (S. flexneri); experiment: pull-down; purified catalytically dead GST–IpaH proteins on GST–Sepharose resin; cell lysate with RNF213 applied (20 mM Tris-HCl pH 8, 150 mM NaCl, 0.1% Triton X-100, 5 mM EDTA), beads washed three times, glutathione elution, bound RNF213 detected by western blot; only the target purified
[2] = target: GST–IpaH7.8-C357A (catalytically dead IpaH7.8) (S. flexneri) (UniProt P18014); experiment: as above

By UniProt entry, the sequences of proteins in these tests, tags left out.
UniProt Q63HN8: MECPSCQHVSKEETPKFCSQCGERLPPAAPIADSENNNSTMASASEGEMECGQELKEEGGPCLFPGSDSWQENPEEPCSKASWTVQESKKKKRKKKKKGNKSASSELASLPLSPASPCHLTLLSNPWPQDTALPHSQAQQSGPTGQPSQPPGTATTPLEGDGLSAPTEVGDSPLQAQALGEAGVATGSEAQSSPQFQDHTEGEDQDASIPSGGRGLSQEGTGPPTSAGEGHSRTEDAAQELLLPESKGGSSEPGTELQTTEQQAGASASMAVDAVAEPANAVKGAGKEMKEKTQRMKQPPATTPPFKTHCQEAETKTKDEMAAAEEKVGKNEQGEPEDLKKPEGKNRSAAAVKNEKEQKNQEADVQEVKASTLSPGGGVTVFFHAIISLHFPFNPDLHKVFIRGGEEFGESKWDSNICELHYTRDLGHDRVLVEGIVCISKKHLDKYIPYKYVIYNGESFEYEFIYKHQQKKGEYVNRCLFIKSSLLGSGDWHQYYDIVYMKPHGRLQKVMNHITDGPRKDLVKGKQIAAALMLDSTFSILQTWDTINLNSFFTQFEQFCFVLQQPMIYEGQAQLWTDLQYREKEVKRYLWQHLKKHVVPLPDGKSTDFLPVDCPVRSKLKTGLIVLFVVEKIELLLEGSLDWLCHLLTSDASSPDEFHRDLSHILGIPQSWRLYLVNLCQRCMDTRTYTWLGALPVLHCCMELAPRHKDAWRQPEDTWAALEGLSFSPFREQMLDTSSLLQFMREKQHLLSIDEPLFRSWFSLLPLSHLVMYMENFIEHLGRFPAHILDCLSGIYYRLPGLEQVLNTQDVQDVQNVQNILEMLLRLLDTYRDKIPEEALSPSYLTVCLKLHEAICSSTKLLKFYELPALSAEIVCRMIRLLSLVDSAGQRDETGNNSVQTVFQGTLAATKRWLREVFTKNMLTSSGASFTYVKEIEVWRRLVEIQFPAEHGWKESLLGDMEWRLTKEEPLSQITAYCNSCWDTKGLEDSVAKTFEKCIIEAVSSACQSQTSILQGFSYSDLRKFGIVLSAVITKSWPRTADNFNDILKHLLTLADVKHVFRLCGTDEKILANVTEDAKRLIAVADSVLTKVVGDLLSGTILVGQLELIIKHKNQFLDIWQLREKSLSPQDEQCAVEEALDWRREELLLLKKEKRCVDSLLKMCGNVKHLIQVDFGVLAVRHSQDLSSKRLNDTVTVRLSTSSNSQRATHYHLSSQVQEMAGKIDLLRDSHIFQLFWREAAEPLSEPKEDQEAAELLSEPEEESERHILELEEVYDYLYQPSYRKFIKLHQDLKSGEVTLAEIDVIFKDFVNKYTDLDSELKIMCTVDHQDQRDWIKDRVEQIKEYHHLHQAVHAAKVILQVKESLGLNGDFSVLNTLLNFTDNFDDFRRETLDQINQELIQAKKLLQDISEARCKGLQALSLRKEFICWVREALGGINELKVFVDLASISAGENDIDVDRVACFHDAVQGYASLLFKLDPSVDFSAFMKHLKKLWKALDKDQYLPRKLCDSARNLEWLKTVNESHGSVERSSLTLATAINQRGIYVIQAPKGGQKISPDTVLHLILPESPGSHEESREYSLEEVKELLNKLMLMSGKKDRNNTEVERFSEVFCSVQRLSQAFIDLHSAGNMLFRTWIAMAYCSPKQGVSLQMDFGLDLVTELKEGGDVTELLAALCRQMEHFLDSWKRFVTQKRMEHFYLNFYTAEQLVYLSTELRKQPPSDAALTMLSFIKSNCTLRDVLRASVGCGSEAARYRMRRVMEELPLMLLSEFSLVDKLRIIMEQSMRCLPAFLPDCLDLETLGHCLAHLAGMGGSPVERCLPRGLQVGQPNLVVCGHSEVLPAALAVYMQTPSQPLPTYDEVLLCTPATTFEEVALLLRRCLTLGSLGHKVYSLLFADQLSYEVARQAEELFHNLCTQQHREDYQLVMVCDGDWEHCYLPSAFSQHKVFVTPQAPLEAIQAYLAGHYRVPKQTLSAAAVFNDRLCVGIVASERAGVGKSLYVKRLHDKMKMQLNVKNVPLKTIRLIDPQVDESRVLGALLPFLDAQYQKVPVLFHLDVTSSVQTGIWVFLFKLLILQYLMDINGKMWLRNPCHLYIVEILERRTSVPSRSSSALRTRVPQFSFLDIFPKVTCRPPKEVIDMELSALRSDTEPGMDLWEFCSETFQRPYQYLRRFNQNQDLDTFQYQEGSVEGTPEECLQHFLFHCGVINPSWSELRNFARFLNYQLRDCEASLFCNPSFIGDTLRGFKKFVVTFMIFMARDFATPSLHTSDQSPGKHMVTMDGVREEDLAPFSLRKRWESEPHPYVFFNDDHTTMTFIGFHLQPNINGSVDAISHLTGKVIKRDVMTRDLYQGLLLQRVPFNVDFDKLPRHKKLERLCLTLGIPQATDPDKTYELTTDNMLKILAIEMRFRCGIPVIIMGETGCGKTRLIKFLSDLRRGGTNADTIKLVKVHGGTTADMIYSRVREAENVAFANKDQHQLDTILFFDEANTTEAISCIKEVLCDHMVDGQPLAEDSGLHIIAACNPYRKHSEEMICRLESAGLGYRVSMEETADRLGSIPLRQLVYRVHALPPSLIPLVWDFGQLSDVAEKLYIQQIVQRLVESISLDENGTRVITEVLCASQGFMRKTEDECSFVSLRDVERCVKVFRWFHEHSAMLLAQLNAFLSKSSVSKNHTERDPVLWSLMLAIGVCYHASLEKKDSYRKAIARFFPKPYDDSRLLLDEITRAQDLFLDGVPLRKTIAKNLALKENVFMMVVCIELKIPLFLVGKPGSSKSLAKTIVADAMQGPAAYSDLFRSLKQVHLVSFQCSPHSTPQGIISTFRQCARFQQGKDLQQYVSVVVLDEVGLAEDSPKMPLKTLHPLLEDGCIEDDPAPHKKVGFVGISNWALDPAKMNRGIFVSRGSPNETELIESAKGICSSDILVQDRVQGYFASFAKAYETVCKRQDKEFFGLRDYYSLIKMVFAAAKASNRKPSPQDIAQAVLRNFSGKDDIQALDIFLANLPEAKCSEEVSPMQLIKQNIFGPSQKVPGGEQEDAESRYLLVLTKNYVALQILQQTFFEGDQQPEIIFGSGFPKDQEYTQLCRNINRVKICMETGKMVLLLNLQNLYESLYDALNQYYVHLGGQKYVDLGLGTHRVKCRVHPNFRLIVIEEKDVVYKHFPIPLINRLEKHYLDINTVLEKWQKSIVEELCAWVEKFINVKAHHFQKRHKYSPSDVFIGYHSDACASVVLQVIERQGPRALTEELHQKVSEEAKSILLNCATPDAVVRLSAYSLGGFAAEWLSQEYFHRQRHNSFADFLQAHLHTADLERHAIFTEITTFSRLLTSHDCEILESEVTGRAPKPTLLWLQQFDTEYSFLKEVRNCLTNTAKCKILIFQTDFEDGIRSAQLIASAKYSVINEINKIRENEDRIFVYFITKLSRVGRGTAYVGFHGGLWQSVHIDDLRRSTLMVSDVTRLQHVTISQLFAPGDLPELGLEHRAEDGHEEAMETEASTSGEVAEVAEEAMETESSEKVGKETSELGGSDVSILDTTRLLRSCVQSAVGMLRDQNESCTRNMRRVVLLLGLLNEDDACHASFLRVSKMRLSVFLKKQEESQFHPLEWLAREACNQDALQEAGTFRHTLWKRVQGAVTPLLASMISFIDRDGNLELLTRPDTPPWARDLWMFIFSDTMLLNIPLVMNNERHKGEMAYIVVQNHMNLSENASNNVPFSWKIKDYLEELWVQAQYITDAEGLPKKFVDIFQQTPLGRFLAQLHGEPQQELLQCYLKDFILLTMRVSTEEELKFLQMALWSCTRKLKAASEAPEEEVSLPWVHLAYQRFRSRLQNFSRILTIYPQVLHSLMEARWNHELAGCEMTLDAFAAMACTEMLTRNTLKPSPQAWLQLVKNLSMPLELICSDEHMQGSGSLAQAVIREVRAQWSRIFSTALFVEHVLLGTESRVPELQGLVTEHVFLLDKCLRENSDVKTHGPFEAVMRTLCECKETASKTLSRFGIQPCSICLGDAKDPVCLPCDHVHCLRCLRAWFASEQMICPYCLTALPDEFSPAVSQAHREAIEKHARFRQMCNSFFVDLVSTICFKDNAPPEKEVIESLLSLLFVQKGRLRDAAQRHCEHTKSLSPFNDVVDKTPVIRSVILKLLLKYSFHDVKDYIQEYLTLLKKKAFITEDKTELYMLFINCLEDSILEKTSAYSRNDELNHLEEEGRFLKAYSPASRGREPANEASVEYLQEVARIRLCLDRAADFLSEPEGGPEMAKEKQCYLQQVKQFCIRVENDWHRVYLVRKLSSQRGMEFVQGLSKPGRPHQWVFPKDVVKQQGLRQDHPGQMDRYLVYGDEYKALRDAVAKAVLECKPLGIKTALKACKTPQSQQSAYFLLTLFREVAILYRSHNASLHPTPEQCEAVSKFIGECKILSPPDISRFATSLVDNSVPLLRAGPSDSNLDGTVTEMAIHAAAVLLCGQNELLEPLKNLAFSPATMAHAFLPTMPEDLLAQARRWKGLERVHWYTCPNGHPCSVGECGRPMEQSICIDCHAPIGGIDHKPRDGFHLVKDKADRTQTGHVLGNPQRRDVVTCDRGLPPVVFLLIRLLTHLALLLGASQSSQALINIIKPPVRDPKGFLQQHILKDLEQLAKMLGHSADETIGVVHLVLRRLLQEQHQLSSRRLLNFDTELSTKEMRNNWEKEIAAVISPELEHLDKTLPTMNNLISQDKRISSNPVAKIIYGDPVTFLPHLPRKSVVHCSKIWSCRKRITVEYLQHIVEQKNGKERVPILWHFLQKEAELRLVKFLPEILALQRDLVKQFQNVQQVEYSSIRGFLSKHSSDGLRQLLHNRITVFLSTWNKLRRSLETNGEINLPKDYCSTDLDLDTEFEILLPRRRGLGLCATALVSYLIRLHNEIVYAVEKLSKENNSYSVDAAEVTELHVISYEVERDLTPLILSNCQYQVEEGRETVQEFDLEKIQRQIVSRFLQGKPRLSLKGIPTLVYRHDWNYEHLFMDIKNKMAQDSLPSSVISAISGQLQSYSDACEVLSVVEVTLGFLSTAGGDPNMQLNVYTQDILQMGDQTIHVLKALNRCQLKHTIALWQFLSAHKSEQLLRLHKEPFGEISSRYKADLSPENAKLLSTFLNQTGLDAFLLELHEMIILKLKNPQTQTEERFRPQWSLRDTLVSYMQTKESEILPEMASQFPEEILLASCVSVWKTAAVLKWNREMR

Substance: GFP–RNF213 (human) (from UniProt Q63HN8 1-5207) (enzyme)
- binding [1]: binds
- binding [2]: no binding
